Source: the supplement of paper PMC6411743
± gives the standard deviation of the averaged measurements. The list shows a part of the results.

Chains of the proteins cited; added tags and fusions are not shown. Lines headed by an entry give the natural chain unless they say otherwise; changes in a name come on top.
UniProt Q9NY35: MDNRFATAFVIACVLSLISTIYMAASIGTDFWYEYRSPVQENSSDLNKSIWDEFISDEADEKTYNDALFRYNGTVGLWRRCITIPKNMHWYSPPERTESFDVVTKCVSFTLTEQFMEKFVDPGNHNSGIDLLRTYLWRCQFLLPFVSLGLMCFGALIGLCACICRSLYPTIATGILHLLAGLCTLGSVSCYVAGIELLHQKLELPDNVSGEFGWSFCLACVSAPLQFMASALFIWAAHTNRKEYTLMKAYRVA
UniProt Q9BV38: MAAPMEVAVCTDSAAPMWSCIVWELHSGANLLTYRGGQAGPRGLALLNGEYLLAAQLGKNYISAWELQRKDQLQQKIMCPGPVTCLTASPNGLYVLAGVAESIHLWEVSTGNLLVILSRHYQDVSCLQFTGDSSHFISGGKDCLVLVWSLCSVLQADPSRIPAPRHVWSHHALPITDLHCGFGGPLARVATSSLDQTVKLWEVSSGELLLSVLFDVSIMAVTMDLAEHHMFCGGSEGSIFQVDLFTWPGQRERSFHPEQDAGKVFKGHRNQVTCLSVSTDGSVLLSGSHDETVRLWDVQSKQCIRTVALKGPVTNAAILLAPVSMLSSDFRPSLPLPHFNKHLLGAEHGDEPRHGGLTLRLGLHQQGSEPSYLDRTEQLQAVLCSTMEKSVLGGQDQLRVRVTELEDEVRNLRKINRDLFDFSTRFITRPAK
UniProt Q99501: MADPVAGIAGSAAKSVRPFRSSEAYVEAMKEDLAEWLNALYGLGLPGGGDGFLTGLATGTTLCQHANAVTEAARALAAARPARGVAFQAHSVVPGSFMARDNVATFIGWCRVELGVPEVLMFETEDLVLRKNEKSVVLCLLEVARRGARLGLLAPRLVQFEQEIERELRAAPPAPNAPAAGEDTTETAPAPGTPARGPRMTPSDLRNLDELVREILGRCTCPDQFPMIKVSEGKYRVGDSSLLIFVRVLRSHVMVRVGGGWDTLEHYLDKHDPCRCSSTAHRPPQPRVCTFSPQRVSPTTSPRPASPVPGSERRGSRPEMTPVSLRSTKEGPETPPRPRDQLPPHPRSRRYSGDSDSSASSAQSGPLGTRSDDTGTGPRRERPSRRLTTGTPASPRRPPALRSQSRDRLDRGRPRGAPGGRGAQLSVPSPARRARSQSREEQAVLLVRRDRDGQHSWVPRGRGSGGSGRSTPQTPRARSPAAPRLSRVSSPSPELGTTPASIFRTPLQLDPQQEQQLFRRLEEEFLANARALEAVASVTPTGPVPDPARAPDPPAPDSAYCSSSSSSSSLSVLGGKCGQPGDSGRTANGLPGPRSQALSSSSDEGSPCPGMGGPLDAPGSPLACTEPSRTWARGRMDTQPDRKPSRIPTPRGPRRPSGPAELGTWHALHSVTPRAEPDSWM
UniProt Q92614: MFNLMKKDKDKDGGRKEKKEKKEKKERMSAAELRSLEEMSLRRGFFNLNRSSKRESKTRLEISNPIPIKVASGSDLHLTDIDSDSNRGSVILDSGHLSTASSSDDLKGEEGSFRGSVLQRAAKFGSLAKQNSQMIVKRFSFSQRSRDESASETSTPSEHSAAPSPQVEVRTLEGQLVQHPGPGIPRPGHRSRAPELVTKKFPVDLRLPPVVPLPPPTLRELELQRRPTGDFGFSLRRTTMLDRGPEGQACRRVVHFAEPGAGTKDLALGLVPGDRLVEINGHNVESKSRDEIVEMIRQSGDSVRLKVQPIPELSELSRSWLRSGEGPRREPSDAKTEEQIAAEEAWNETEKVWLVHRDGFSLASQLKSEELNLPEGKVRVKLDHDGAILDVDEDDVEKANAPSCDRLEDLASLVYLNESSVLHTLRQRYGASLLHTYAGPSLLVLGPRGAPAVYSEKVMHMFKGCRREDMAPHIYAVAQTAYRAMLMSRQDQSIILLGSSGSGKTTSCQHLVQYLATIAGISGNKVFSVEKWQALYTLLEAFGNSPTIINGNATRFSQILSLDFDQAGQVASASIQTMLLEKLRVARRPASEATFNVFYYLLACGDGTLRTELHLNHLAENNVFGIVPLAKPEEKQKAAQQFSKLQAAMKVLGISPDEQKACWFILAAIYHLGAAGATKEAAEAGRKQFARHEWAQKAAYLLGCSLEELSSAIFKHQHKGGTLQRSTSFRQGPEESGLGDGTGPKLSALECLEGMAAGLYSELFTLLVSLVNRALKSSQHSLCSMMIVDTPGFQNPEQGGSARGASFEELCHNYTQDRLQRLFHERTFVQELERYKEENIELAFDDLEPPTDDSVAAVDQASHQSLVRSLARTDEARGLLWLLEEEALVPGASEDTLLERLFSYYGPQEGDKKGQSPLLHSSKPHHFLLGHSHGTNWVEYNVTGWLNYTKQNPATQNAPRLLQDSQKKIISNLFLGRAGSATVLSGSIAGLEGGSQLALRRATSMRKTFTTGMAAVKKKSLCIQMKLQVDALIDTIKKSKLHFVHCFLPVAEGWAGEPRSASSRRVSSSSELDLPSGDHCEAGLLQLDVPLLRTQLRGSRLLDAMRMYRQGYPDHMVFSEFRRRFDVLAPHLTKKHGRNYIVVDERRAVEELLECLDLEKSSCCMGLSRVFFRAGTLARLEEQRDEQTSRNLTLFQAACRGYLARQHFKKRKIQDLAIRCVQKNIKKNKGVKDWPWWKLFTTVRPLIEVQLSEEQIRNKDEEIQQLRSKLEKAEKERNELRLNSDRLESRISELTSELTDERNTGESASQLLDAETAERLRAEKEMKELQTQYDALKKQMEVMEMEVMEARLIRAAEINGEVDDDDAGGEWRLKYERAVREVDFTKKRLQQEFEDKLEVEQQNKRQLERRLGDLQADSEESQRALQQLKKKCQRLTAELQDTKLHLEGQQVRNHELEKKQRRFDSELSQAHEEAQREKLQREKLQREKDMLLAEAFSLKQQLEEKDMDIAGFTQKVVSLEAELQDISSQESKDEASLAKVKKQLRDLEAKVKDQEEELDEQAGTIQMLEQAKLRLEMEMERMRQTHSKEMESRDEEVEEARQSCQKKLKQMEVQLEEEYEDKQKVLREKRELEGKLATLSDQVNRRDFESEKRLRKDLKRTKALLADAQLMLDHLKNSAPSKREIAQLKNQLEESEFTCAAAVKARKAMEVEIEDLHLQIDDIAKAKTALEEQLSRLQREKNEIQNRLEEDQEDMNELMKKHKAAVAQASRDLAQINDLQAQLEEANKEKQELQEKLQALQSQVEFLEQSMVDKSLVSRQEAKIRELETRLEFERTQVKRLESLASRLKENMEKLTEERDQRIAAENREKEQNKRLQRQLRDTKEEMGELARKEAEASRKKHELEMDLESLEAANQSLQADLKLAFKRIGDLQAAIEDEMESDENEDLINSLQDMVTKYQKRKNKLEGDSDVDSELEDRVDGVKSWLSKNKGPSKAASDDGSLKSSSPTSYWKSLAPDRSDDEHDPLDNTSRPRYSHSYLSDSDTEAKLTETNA
UniProt Q8IXQ4: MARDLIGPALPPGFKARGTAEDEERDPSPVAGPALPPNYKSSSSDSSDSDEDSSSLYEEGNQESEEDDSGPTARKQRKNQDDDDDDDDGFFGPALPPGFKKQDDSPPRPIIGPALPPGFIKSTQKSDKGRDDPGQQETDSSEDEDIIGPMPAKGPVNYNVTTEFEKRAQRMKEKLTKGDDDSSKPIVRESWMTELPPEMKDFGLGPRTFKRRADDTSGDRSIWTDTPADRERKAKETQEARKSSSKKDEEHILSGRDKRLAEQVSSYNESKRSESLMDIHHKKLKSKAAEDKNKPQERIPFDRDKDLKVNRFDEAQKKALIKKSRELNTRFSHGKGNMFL
UniProt O75608: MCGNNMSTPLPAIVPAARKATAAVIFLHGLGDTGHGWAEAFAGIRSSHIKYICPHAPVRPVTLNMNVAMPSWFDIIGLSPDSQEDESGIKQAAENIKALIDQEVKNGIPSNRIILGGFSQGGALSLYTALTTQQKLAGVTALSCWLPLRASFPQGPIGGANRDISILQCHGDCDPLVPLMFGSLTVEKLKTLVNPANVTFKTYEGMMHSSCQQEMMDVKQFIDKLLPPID
UniProt Q9Y3A5: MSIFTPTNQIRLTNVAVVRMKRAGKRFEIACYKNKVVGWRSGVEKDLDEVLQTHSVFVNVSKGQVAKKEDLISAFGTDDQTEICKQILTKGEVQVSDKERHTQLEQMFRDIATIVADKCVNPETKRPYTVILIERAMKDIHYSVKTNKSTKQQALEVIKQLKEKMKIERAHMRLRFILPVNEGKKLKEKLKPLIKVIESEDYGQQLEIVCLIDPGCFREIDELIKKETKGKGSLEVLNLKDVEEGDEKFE
UniProt Q8IWS0: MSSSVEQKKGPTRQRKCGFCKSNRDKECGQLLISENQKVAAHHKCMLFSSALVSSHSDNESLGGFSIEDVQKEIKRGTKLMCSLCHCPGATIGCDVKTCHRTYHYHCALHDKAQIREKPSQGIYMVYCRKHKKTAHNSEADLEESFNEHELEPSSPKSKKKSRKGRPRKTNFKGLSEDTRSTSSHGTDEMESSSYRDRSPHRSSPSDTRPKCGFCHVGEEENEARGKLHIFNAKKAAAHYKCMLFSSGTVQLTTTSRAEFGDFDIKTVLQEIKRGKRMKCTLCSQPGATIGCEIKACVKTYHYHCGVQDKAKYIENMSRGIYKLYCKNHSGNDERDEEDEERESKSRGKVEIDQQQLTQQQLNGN
UniProt Q9BVC4, whole entry: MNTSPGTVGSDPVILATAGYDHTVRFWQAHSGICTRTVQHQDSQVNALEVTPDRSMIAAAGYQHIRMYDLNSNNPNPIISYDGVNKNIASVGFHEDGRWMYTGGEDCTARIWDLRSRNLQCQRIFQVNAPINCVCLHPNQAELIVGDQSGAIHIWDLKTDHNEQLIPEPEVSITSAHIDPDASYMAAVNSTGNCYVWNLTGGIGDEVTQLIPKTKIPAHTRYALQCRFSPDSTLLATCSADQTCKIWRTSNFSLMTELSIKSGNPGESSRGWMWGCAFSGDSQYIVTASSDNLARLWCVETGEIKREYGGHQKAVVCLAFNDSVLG
UniProt Q9BSQ5: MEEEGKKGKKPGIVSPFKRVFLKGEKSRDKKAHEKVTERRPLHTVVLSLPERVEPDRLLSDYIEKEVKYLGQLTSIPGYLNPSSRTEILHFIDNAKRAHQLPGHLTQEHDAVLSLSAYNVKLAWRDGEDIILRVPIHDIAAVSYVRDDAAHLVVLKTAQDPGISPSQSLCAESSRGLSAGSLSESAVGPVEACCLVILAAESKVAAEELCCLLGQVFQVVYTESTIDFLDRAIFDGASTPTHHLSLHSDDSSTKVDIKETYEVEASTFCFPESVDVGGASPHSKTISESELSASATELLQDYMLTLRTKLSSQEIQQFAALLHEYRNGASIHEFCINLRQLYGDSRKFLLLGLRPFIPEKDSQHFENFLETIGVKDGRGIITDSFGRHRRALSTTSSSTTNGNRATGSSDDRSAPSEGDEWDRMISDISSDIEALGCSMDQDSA

Compound: Nc1nc2c(ncn2[C@@H]2O[C@H](COP(=O)(O)OP(=O)(O)OP(=O)(O)O)[C@@H](O)[C@H]2O)c(=O)[nH]1 [guanosine triphosphate]
Assay: NP40-soluble protein abundance relative to vehicle (solubility fold change) (ratio); higher = more soluble protein in presence of GTP
Summary of the method: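 Each value is a fold change relative to the detergent-processed vehicle, calculated per replicate from vsn-normalised intensities. Jurkat crude lysate received eight concentrations (0.1 to 10 mM) for 10 min at room temperature and 3 min at 37 °C, then was solubilised in 0.8% NP40 with benzonase (60 min, 4 °C). The ultracentrifuged supernatant was TMT-labelled and run by LC-MS/MS in three independent experiments.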

Target	NP40-soluble protein abundance (concentration: 0.1mM)	NP40-soluble protein abundance (concentration: 0.5mM)	NP40-soluble protein abundance (concentration: 1mM)	NP40-soluble protein abundance (concentration: 2mM)	NP40-soluble protein abundance (concentration: 4mM)	NP40-soluble protein abundance (concentration: 6mM)	NP40-soluble protein abundance (concentration: 8mM)	NP40-soluble protein abundance (concentration: 10mM)
A0A0R4J2F2|D6R9S8 and related entries (UniProt Q9NY35)	0.9726 ± 0.0073	0.958 ± 0.022	0.902 ± 0.013	0.95 ± 0.094	0.922 ± 0.017	0.923 ± 0.12	0.94193 ± 0.00026	0.968 ± 0.023
A0A0A0MQU0|K7EIR0 and related entries (UniProt Q9BV38)	0.994 ± 0.053	0.977 ± 0.059	1 ± 0.027	0.965 ± 0.05	0.994 ± 0.033	1.023 ± 0.0084	0.953 ± 0.047	0.965 ± 0.078
A0A5E8 and related entries (UniProt Q99501)	1.12 ± 0.09	1.17 ± 0.18	1.21 ± 0.1	1.3 ± 0.15	1.3 ± 0.086	1.37 ± 0.075	1.46 ± 0.035	1.38 ± 0.078
A0A0D9SFK2|Q92614 and related entries (UniProt Q92614)	1 ± 0.062	1.05 ± 0.058	1.02 ± 0.05	1.02 ± 0.071	1.02 ± 0.081	1.01 ± 0.069	1.04 ± 0.11	1.03 ± 0.1
A0A0A0MRI1|Q8IXQ4 (UniProt Q8IXQ4)	0.902 ± 0.043	0.949 ± 0.097	1.03 ± 0.041	1.02 ± 0.081	0.985 ± 0.072	1.04 ± 0.1	1.05 ± 0.062	1.06 ± 0.051
A0A087X1K9|E5RGR0 and related entries (UniProt O75608)	0.899 ± 0.012	0.884 ± 0.057	0.893 ± 0.055	0.866 ± 0.074	0.839 ± 0.065	0.881 ± 0.083	0.83 ± 0.094	0.821 ± 0.098
A0A087X020|Q9Y3A5 (UniProt Q9Y3A5)	0.967 ± 0.044	1.01 ± 0.018	0.873 ± 0.011	0.877 ± 0.07	0.885 ± 0.02	0.914 ± 0.012	0.872 ± 0.021	0.908 ± 0.083
A0A0D9SGE8|Q8IWS0 and related entries (UniProt Q8IWS0)	0.974 ± 0.048	0.981 ± 0.033	0.983 ± 0.056	0.992 ± 0.056	1 ± 0.067	1.03 ± 0.049	1.03 ± 0.07	1.03 ± 0.069
A0A087WYW3|P30414 (UniProt P30414)	1.15 ± 0.012	1.26 ± 0.047	1.41 ± 0.11	1.44 ± 0.16	1.42 ± 0.17	1.43 ± 0.19	1.53 ± 0.24	1.42 ± 0.3
A0A0A0MR05|H3BSZ4 and related entries (UniProt Q9BVC4)	1.08 ± 0.025	1.154 ± 0.0087	1.09 ± 0.024	1.079 ± 0.0098	1.09 ± 0.0077	1.074 ± 0.0029	1.13 ± 0.098	1.12 ± 0.029
A2IDC6 and related entries (UniProt Q13084)	1.18 ± 0.25	1.3 ± 0.35	1.48 ± 0.56	1.5 ± 0.61	1.36 ± 0.54	1.39 ± 0.58	1.33 ± 0.58	1.21 ± 0.48
A0A0A0MT72|E9PEC4 and related entries (UniProt Q9BSQ5)	0.929 ± 0.021	0.926 ± 0.028	0.828 ± 0.089	0.953 ± 0.082	0.939 ± 0.03	0.861 ± 0.025	0.84 ± 0.043	0.938 ± 0.091

Some values from the list.
Value of A0A0A0MQU0|K7EIR0 and related entries (UniProt Q9BV38) under NP40-soluble protein abundance (concentration: 0.5mM): 0.977 ± 0.059
Value of A2IDC6 and related entries (UniProt Q13084) under NP40-soluble protein abundance (concentration: 2mM): 1.5 ± 0.61
